From publication PMC6599304
Results are given in words; binding and its absence hold for the method and conditions named. In cells and extracts the contact can be indirect. Some results given as binding are weak or reduced against the parent protein; the word gives no strength.

Chains of the proteins cited; added tags and fusions are not shown.
UniProt Q8BPN8: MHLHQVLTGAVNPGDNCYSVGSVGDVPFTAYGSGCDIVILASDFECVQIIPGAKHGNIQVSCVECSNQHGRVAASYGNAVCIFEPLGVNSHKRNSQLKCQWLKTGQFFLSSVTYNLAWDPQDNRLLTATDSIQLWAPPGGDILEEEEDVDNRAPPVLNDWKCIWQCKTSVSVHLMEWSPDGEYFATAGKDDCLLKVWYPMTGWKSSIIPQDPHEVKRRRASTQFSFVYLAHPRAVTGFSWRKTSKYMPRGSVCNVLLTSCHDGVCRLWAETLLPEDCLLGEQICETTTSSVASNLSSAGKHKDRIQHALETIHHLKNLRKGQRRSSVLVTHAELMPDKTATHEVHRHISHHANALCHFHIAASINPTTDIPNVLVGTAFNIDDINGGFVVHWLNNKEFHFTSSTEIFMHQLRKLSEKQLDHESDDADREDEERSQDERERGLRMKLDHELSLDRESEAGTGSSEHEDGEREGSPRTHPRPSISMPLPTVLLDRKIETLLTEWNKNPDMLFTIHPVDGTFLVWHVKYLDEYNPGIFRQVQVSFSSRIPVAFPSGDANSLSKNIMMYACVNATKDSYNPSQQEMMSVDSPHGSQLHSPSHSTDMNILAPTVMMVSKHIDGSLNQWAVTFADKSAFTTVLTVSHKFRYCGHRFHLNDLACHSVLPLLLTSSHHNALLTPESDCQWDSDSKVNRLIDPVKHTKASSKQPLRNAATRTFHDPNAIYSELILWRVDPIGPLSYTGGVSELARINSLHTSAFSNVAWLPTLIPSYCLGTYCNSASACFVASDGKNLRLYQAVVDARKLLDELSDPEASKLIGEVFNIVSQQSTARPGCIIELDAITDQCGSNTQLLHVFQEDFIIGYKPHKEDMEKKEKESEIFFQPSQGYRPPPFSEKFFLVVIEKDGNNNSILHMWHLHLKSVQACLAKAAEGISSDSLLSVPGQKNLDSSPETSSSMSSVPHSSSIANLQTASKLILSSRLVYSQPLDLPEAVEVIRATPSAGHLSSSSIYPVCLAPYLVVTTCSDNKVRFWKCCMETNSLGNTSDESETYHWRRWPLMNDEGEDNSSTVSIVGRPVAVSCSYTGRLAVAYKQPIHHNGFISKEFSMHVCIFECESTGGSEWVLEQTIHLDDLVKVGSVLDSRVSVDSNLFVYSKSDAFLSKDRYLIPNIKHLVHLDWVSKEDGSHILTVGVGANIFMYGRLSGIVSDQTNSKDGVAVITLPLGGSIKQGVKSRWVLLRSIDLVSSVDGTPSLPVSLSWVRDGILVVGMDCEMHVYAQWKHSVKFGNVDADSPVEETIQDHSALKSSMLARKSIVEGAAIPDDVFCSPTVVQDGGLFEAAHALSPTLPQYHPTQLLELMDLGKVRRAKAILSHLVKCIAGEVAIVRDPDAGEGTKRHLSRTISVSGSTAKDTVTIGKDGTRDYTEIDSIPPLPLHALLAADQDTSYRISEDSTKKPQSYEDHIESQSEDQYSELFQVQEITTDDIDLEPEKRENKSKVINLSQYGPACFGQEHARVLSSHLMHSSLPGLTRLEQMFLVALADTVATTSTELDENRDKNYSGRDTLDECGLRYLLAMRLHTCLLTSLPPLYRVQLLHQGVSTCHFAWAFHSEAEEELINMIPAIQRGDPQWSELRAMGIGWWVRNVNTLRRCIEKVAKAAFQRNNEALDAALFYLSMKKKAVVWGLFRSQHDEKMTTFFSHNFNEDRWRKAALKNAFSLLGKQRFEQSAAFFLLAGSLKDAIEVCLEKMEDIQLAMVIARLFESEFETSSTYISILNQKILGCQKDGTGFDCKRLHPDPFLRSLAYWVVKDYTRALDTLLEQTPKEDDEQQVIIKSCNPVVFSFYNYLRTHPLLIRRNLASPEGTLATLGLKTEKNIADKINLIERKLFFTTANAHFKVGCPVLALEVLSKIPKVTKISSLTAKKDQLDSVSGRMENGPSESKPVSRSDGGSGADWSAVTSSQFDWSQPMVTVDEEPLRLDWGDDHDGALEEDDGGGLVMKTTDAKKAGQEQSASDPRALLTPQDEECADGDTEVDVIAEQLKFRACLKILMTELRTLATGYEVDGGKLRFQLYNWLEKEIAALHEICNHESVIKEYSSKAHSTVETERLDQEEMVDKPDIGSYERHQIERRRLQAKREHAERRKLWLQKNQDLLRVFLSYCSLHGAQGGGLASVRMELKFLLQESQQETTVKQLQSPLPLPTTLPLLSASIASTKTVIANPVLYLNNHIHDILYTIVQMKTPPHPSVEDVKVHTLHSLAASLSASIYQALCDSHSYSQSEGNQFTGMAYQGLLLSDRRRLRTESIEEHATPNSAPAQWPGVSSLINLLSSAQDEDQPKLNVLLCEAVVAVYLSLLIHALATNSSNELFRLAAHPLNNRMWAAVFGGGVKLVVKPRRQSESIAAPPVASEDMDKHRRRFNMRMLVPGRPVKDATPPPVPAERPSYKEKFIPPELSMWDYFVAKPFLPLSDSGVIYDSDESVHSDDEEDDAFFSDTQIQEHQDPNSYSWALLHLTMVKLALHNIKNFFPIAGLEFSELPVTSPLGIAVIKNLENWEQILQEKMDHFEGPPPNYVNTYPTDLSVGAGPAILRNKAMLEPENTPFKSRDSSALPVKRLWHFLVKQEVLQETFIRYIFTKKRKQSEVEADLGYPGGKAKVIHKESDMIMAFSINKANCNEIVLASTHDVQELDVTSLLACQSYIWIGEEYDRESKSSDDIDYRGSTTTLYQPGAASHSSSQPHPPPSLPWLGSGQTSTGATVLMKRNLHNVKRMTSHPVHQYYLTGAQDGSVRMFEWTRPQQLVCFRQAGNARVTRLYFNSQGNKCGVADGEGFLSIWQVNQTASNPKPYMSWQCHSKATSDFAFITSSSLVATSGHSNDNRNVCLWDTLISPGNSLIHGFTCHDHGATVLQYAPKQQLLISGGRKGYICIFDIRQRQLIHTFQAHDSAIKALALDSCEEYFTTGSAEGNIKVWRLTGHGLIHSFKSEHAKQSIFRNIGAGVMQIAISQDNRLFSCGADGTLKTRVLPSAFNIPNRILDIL
UniProt Q920I9: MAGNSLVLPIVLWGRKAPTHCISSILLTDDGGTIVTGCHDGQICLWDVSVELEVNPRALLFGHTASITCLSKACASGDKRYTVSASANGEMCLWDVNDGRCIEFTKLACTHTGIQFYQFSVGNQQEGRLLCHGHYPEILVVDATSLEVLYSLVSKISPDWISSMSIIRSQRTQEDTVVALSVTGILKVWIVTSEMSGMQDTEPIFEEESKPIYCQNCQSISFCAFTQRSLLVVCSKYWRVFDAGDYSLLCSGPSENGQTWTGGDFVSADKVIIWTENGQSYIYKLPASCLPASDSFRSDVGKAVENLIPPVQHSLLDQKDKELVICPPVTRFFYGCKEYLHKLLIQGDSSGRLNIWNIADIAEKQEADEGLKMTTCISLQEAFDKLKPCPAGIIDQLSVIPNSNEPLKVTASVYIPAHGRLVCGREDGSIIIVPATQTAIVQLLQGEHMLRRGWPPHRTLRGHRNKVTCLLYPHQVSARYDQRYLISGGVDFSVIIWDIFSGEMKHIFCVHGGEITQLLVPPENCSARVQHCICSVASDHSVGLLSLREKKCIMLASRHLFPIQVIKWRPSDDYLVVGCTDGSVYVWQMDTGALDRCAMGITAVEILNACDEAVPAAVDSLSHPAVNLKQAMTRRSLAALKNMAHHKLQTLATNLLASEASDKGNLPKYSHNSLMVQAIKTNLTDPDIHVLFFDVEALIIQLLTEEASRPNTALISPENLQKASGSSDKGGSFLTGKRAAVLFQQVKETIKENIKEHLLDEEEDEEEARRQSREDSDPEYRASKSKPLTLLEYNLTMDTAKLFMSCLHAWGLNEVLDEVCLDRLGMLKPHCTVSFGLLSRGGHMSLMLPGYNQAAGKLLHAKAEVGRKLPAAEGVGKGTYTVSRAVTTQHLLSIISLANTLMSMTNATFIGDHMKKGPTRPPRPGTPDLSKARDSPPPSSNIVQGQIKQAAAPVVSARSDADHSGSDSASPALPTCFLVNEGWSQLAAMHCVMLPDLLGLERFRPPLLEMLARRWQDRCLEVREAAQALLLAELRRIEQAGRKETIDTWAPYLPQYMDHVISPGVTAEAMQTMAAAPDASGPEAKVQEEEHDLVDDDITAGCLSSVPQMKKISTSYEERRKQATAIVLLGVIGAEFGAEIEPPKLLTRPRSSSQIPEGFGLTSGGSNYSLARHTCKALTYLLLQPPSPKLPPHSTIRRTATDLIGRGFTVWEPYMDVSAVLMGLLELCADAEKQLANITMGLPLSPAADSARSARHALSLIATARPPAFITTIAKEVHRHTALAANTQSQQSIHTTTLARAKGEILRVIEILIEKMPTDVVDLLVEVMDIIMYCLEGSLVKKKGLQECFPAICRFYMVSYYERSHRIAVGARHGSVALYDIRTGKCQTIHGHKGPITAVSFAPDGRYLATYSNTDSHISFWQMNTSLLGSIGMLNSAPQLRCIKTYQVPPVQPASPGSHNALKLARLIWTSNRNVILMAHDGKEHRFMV
UniProt Q9Y4E6: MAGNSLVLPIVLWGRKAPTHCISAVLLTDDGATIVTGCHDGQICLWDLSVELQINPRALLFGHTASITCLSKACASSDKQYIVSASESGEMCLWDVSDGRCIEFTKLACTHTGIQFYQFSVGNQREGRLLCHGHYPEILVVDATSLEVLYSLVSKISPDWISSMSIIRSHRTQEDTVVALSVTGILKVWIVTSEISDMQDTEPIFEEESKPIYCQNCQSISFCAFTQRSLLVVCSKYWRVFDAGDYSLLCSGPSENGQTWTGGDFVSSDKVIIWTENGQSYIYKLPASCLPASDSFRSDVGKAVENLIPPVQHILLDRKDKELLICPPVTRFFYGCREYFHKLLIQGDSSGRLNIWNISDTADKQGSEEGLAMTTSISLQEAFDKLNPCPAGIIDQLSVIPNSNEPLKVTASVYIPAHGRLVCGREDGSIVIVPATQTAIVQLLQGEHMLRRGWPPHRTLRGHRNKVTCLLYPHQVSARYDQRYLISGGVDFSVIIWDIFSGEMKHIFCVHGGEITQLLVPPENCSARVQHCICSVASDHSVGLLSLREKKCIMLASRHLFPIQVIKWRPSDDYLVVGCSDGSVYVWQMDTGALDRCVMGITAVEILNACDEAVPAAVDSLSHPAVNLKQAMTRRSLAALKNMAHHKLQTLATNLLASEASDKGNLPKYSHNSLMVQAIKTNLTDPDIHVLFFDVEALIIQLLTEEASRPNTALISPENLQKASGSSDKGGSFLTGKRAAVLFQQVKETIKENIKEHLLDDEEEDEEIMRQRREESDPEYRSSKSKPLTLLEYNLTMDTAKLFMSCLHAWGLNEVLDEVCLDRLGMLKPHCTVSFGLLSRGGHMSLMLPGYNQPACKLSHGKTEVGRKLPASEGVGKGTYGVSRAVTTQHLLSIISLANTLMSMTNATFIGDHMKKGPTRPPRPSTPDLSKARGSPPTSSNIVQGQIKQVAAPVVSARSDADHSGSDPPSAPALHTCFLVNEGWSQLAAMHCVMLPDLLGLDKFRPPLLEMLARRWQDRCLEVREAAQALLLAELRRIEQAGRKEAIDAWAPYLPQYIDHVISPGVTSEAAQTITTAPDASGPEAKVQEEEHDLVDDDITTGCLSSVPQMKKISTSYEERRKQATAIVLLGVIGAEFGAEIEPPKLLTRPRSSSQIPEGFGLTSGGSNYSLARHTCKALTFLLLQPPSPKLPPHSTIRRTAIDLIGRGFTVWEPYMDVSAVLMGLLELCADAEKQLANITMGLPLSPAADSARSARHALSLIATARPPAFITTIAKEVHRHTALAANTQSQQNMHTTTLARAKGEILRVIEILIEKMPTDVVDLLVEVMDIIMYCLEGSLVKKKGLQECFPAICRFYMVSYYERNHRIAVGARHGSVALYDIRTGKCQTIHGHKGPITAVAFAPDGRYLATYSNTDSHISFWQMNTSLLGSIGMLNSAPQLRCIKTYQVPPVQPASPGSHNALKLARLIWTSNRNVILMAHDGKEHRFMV

Legend:
[1] = biological target: Cav2.1 calcium channel (endogenous, brain) (mouse (endogenous in mouse brain; the methods say rat brain)) (UniProt P97445); assay: co-IP; mouse brain homogenate (methods: rat brain proteins lysed in RIPA buffer); 1 mg of proteins with 3 ug of specific or irrelevant (isotype control) antibody; Western blot
[2] = biological target: Cav2.2 calcium channel (endogenous, brain) (mouse (endogenous in mouse brain; the methods say rat brain)) (UniProt O55017); assay: as above
[3] = biological target: Rabconnectin-3α (endogenous, brain) (mouse (endogenous in mouse brain; the methods say rat brain)) (UniProt Q8BPN8); assay: as above
[4] = biological target: Cav2.2 α1 subunit (rat, recombinant in tsA-201 cells) (rat) (UniProt Q02294); assay: co-IP; lysate of tsA-201 cells transfected with Cav2.2α1 and RB-3β only (1% Triton X-100 lysis buffer); precipitated with anti-Cav2.2, anti-RB-3β or irrelevant antibody; Western blot with anti-RB-3β
[5] = biological target: Rabconnectin-3β (endogenous, brain) (mouse (endogenous in mouse brain; the methods say rat brain)) (UniProt Q920I9); assay: co-IP; mouse brain homogenate (methods: rat brain proteins lysed in RIPA buffer); 1 mg of proteins with 3 ug of specific or irrelevant (isotype control) antibody; Western blot

With “Rabconnectin-3β (endogenous, brain) (from UniProt Q920I9 1-1489)” the binding [1] was “binds”, the binding [2] was “binds” and the binding [3] was “binds”.
With “Cav2.2 calcium channel (endogenous, brain) (from UniProt O55017 1-2327)” the binding [3] was “binds”.
“Rabconnectin-3β (human WDR7, recombinant in tsA-201 cells) (from UniProt Q9Y4E6 1-1490)” was tested, and the binding [4] was “binds”.
With “Rabconnectin-3α (endogenous, brain) (from UniProt Q8BPN8 1-3032)” the binding [5] was “binds”.
